Test results: paper PMC5364666
These are yes or no findings as the source states them, for the method shown.

T1: S. cerevisiae Prp38 D189A variant, full-length (S. cerevisiae) (UniProt Q00723)
T1 sequence: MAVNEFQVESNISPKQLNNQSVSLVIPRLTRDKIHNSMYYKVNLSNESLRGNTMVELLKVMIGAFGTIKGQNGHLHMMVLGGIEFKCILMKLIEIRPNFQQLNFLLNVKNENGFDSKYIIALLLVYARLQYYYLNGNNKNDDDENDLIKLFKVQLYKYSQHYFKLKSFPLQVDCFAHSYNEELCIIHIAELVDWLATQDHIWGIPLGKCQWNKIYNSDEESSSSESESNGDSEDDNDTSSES

B1: S. cerevisiae Spp381 (pre-mRNA-splicing factor suppressor of prp38-1), full-length wild type (protein, UniProt P38282 1-291)
chain: MSFRHFKRRLDTSSADESSSADEEHPDQNVSLTEKSASLSHSDLGGEILNGTGKNRTPNDGQESNESDGSPESDESPESEESSDNSDSSDSDDMRPLPRPLFMKKKANNLQKATKIDQPWNAQDDARVLQTKKENMIKNIDKANQVAKNYETMKLRLNTNYSTNEELIKQCLLLDDNDEVDSEKERQKWFERQNERKQKHRRIQLAKQRESEEYEAKRFEAMQKGKDGNTKYDVILDKEKEKLDHKKQRSAEKVEKSHNNNRYKITRTKNVEFGDLGKNSRDYEETEYSVI
B2: S. cerevisiae Spp381 R192A variant, full-length (protein, UniProt P38282 1-291)
chain: MSFRHFKRRLDTSSADESSSADEEHPDQNVSLTEKSASLSHSDLGGEILNGTGKNRTPNDGQESNESDGSPESDESPESEESSDNSDSSDSDDMRPLPRPLFMKKKANNLQKATKIDQPWNAQDDARVLQTKKENMIKNIDKANQVAKNYETMKLRLNTNYSTNEELIKQCLLLDDNDEVDSEKERQKWFEAQNERKQKHRRIQLAKQRESEEYEAKRFEAMQKGKDGNTKYDVILDKEKEKLDHKKQRSAEKVEKSHNNNRYKITRTKNVEFGDLGKNSRDYEETEYSVI

Legend:
[1] = target: T1, S. cerevisiae Prp38 D189A variant, full-length (S. cerevisiae); test: SEC; analytical gel filtration of two proteins: 50 uM each, equimolar, incubated 30 min at 4 °C in SEC buffer (10 mM Tris-HCl pH 8.0, 300 mM NaCl, 0.1 mM EDTA, 1 mM DTT); Superdex 75 or Superdex 200 Increase columns at 4 °C; peak fractions by SDS-PAGE; both purified
[2] = target: S. cerevisiae Prp38 (pre-mRNA processing factor 38 domain containing protein), full-length wild type (S. cerevisiae) (UniProt Q00723); test: as above

Binder	binding [1]	binding [2]
B1	no binding (tested: 50 μM)	–
B2	–	no binding (tested: 50 μM)
